These are yes or no findings as the source states them, for the method shown. In cells and extracts the contact can be indirect.
Assays:
[1] = target: von Hippel-Lindau protein (pVHL) (human) (UniProt P40337); assay: co-IP; total lysates (500 ug) of pVHL-positive cells in RIPA buffer (150 mM NaCl, 10 mM Tris HCl, 1% SDS, 1% nonidet P-40, 1% sodium deoxycholate, pH 7.4); immunoprecipitation with anti-pVHL or anti-TSP-1 antibodies, 4 °C, 16 hours, protein G; western blot against pVHL and TSP-1
[2] = target: thrombospondin-1 (TSP-1) (human (endogenous in ccRCC cell lines)) (UniProt P07996); assay: as above

Sequences of proteins named here, by UniProt entry; tags and fusion partners are left off. Residues count along the entry.
UniProt P40337: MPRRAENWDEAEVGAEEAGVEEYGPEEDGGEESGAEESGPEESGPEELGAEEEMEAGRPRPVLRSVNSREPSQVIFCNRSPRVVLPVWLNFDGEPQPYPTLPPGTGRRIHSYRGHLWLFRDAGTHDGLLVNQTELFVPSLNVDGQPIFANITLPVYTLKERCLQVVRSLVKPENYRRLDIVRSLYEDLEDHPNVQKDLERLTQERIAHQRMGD
UniProt P07996, residues 19-1170: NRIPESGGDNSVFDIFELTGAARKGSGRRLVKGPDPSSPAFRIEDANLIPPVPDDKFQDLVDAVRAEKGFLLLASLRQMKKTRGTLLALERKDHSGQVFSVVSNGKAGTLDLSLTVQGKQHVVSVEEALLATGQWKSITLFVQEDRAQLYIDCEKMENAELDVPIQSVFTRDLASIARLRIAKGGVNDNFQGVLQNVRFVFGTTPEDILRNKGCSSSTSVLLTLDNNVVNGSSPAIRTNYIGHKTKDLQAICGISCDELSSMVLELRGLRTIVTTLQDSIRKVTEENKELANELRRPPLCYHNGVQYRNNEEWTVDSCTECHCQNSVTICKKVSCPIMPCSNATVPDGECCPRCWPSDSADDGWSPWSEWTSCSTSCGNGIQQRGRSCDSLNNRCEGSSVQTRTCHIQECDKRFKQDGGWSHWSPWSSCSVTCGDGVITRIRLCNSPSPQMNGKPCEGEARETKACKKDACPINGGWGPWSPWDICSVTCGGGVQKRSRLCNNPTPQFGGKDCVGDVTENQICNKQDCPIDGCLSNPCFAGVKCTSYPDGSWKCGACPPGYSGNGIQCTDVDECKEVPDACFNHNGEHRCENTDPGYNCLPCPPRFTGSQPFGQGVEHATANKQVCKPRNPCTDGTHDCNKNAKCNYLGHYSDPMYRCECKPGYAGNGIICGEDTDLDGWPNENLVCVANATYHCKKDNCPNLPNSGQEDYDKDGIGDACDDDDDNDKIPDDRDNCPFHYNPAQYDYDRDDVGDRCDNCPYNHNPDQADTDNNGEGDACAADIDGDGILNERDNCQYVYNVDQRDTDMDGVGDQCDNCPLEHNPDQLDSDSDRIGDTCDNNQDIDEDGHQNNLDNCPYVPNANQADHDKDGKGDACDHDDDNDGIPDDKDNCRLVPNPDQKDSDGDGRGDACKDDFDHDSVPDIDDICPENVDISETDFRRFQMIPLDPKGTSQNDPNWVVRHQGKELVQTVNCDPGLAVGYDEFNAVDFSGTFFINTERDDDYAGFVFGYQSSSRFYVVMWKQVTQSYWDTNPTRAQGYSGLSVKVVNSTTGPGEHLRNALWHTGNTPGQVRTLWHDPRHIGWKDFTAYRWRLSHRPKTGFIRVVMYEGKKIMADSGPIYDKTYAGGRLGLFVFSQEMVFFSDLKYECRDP

| Substance | binding [1] | binding [2] |
| --- | --- | --- |
| thrombospondin-1 (TSP-1) (from UniProt P07996 19-1170) | no binding | – |
| von Hippel-Lindau protein (pVHL) (from UniProt P40337 1-213) | – | no binding |
